Experimental data: PubChem BioAssay AID493014 (National Center for Advancing Translational Sciences (NCATS), 2011)
The list shows a part of the results. Further columns of the screen follow, without active or inactive calls. The list favours compounds with an active or inconclusive main result. Words in brackets tell the shape of the fitted curve; partial curves, single points and poor fits give uncertain potencies.

Assay: qHTS Assay to Find Inhibitors of Chronic Active B-Cell Receptor Signaling
Details: ABC-DLBCL IkBa-CBG/CBR reporter, luminescence ratio (green luciferase fused to IkBa over red control in TMD8 lymphoma cells), 4 h
How it was run: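 Concentration-response series (up to 46 uM) were applied to TMD8 dual-reporter cells for 4 h at 37C with doxycycline. Green/red ratio, after filter-overlap correction, defined %Activity; red signal alone was normalised to basal cells and zero luminescence.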

[1] = measured here: CBR red luminescence, cell number
[2] = measured here: IkBa-CBG green luminescence

Structure (SMILES) | AC50 [1] | AC50 [2]
O=C1C=C(Nc2cccc3cccnc23)c2ccccc2C1=O | 0.631 µM [rising, full curve, poor fit] | 1 µM [falling, full curve]
C/C(=N\NC(=O)c1nonc1N)c1cccs1 | 10.3 µM [falling, partial curve, poor fit] | –
COc1ccc2nc3c(cc2c1)c(NC(=O)CC(C)C)nn3CC(C)C | 1.26 µM [falling, partial curve, poor fit] | 3.16 µM [rising, full curve, poor fit]
Cc1[nH]n(-c2cccc(Cl)c2)c(=O)c1-c1ccc(Cl)cc1 | 18.4 µM [falling, single point] | –
COc1cccc(CNc2ncc(-c3ccccc3)n2C)c1 | 11.2 µM [falling, partial curve] | –
Cc1ccc(NC(=O)c2cc3ccccc3o2)nc1 | 6.51 µM [falling, full curve] | –
Cc1cccc(N2CCN(C(=O)C3CCN(S(=O)(=O)c4c(C)noc4C)CC3)CC2C)c1 (stereo not drawn) | 10 µM [falling, partial curve, poor fit] | –
c1cncc(-c2nc(-c3ccc4c(c3)OCCO4)cs2)c1 | 2.51 µM [rising, partial curve, poor fit] | –
CN(Cc1ccccc1)C(=O)c1nc[nH]c1C(=O)N1CCc2ccccc2C1 | 16.4 µM [falling, single point] | –
Cc1ccc(C)c2nc3sc(C(=O)O)cc3cc12 | 10 µM [falling, partial curve] | –
CCN(CC(=O)NCc1ccc(Cl)cc1)C(=O)CN1C(=O)NC(C)(c2ccccc2)C1=O (stereo not drawn) | 6.31 µM [rising, single point] | –
CCOc1ccc(OCCOC(=O)CNC(=O)c2ccc(Cl)cc2Cl)cc1 | 18.4 µM [rising, single point] | –
O=C(Cc1ccc(Cl)cc1)NNc1c(F)c(F)cc(F)c1F | 0.092 µM [falling, full curve, poor fit] | –
CC(=O)Nc1cccc(-c2csc(Nc3ccc(Cl)cn3)n2)c1 | 7.94 µM [falling, partial curve] | –
CC(C)=NN1C(=O)c2ccccc2NC1(C)C | 15.8 µM [falling, single point] | –
O=C(CSc1nnc(Nc2ccccc2)s1)Nc1ccc(S(=O)(=O)N2CCOCC2)cc1 | 5.8 µM [falling, full curve, poor fit] | –
COc1ccccc1/C=N/NC(=O)c1ccc(NC(=O)c2ccccc2Br)cc1 | 25.9 µM [falling, partial curve, poor fit] | –
CCOc1cc(CNc2ccc3cn[nH]c3c2)ccc1OC | 5.8 µM [falling, full curve, poor fit] | –
COc1cc(NC(=O)c2ccc3snnc3c2)cc(OC)c1 | 3.98 µM [falling, partial curve, poor fit] | –
Cc1cc(C(=O)N/N=C/c2ccc(Cl)c([N+](=O)[O-])c2)c(C)n1-c1ccc(F)cc1 | 23.1 µM [rising, partial curve, poor fit] | 18.4 µM [falling, single point]
O=C1C(=O)N(CCCc2ccccc2)c2ccccc21 | 12.6 µM [rising, partial curve, poor fit] | –

A second format for part of the listing above:
Structure (SMILES)	AC50 [1]	AC50 [2]
COc1ccc2nc3c(cc2c1)c(NC(=O)CC(C)C)nn3CC(C)C	1.26 µM [falling, partial curve, poor fit]	3.16 µM [rising, full curve, poor fit]
Cc1[nH]n(-c2cccc(Cl)c2)c(=O)c1-c1ccc(Cl)cc1	18.4 µM [falling, single point]	–
COc1cccc(CNc2ncc(-c3ccccc3)n2C)c1	11.2 µM [falling, partial curve]	–

The list goes on.

Structure (SMILES) | AC50 [1] | AC50 [2]
Cc1ccc(C)n1-c1ccc(C(=O)NN=C2CCCC2)cc1 | 7.94 µM [falling, partial curve, poor fit] | –
N#C/C(=C\c1cccs1)C(=O)Nc1ccccn1 | 10 µM [falling, partial curve, poor fit] | –
CC(C)(C)c1ccc(Cn2nnc3c(=O)[nH]c(C4CCN(C(=O)Cc5cccs5)CC4)nc32)cc1 | 12.6 µM [falling, partial curve] | –
O=C1S/C(=C\C=C\c2ccco2)C(=O)N1c1ccccc1 | 0.0103 µM [rising, full curve, poor fit] | –
Cc1ccccc1Cn1cc(NC(=O)COc2ccccc2)cn1 | 0.562 µM [falling, partial curve, poor fit] | –
O=C1NC(=Nc2ccccc2Cl)S/C1=C\c1cccc([N+](=O)[O-])c1O | 4.47 µM [falling, full curve, poor fit] | –
Cc1cc(=O)oc2cc(OCc3ccc(C(=O)OCC(=O)N(C)C4CCS(=O)(=O)C4)cc3)ccc12 (stereo not drawn) | 22.4 µM [falling, partial curve, poor fit] | –
O=C(NNC(=O)c1ccco1)c1ccccc1 | 6.51 µM [falling, partial curve, poor fit] | –
CCOc1ccc(CCNC(=O)C(CC)n2nc(C)n3c(cc4sccc43)c2=O)cc1OCC (stereo not drawn) | 32.6 µM [falling, single point] | –
COc1ccc(NC(=O)C(OC(=O)c2cnccn2)c2ccccc2)cc1Cl (stereo not drawn) | 11.2 µM [falling, partial curve, poor fit] | –
Cc1cccc(CSCc2ccc(C(=O)NC3CCCC3)o2)c1 | 35.5 µM [rising, single point] | –
Cc1cccc(NC2=NC(C)(C)N=C(N)N2)c1 | 3.55 µM [falling, partial curve, poor fit] | –
Cn1nnnc1SCc1ccc(CSc2nnnn2C)cc1 | 15.8 µM [rising, partial curve, poor fit] | –
COc1cccc(N2CCN(C(=O)c3cc4c(s3)-c3ccccc3OC4)CC2)c1 | 14.1 µM [falling, partial curve] | –
COc1cc2c3nnc(-c4ccc(F)cc4)c-3cn(Cc3ccc(F)cc3)c2cc1OC | 6.51 µM [rising, single point] | –
O=C(Cc1ccccc1F)Nc1nc2ccccc2[nH]1 | 12.6 µM [falling, single point] | –
COC(=O)c1ccc(NC(=S)N2CCC(C(N)=O)CC2)cc1 | 7.31 µM [falling, partial curve, poor fit] | –
COc1ccc(CNC(=O)COC(=O)CCOc2ccccc2)cc1 | 2.31 µM [rising, partial curve] | –
COC1=CC(=O)CC(C)C12Oc1c(Cl)c(OC)cc(OC)c1C2=O (stereo not drawn) | 18.4 µM [rising, partial curve] | 18.4 µM [falling, partial curve, poor fit]
O=C(c1cccs1)N1CCN(c2nc3ccccc3s2)CC1 | 2 µM [rising, partial curve, poor fit] | –
Cc1cccc(C)c1NC(=O)CNC(=O)CCCN1C(=O)c2cccc3cccc(c23)C1=O | 1.3 µM [rising, full curve, poor fit] | –

Structure (SMILES) | AC50 [1] | AC50 [2]
COc1ccc(Cl)cc1C(Nc1cccnc1)c1ccc2cccnc2c1O (stereo not drawn) | 35.5 µM [falling, single point] | –
CS(=O)(=O)Nc1cccc(C(=O)CC2(O)C(=O)Nc3ccc(Br)cc32)c1 (stereo not drawn) | – | 20 µM [falling, partial curve, poor fit]
Nc1ccccc1SCC(=O)Nc1nc(-c2ccccc2)cs1 | 25.1 µM [falling, single point] | –
CCCc1nnc(NC(=O)CSc2ncn[nH]2)s1 | 0.562 µM [falling, full curve, poor fit] | –
O=C(/C=C/c1c[nH]c2ccccc12)c1cccc2ccccc12 | 3.55 µM [falling, partial curve, poor fit] | –
CC(=O)NS(=O)(=O)c1ccc(N=c2ssc3c2-c2ccc(C)cc2NC3(C)C)cc1 | 11.6 µM [falling, partial curve] | –
CCOC(=O)N1CCN(Cc2cn[nH]c2-c2cc3ccccc3o2)CC1 | 14.1 µM [falling, partial curve] | –
Cc1nc2c([nH]c3ccc(Br)cc32)s1 | 20.6 µM [rising, partial curve, poor fit] | –
CC1CCCC(C)N1/N=C/c1ccc([N+](=O)[O-])cc1 (stereo not drawn) | 3.16 µM [rising, full curve] | –
CCN(Cc1nc2ccccc2c(=O)[nH]1)Cc1nc2ccsc2c(=O)[nH]1 | 22.4 µM [falling, single point] | 11.2 µM [falling, partial curve, poor fit]
COc1ccc2c(c1)sc(N)[n+]2Cc1cc(C)cc2cccnc12 | – | 18.4 µM [falling, single point]
O=C1C(Nc2ccccc2)=C/C(=N/S(=O)(=O)c2cccs2)c2ccccc21 | 4.61 µM [falling, partial curve] | 20.6 µM [rising, single point]
CC(=O)N=C1SC2CS(=O)(=O)CC2N1c1ccc(-c2nc3ccc(C)cc3s2)cc1 (stereo not drawn) | 11.6 µM [rising, partial curve, poor fit] | –
Cc1ccc(-c2ccc(=O)n(CCC(=O)NCCc3ccccc3)n2)cc1 | 5.01 µM [rising, single point] | –
CCOC(=O)C1CCN(S(=O)(=O)c2ccc3c4c(cccc24)C(=O)N3)CC1 | 5.62 µM [rising, full curve, poor fit] | –
COCCN(Cc1ccc(F)cc1)C(=O)c1cc2ccccc2oc1=O | 22.4 µM [rising, single point] | –
Cc1ccc(NCc2ccc(O)c3ncccc23)cc1C | 20 µM [falling, partial curve, poor fit] | –
COc1ccc(OC)c(C(=O)N2CCC(CCC(=O)NC3CC3)CC2)c1 | 1.58 µM [falling, partial curve, poor fit] | –
CC(C)(C)c1csc(Sc2ncccc2[N+](=O)[O-])n1 | 5.62 µM [rising, full curve, poor fit] | –
COc1cccc(-c2nc3ccc(C(=O)NC(C)Cc4cccnc4)cc3o2)c1 (stereo not drawn) | 3.55 µM [rising, partial curve] | –
